Experimental data as given in patent publication US20200046712A1, “PROCESS FOR MAKING 1,3,7- TRIMETHYLURIC ACID WATER SOLUBLE SALTS OR CO-CRYSTALS AND THEIR USAGE IN DIETARY SUPPLEMENTS OR FUNCTIONAL FOODS FORMULATIONS” (Arcadia Biotechnology Ltd., priority 2018, published 2020).

Experiment: Bitterness assessments test (triangle test, trained panelists)
Details: for bitterness and aftertaste of drink formulation: 200 mg in flavored drink formula dissolved in 10 Oz cold water, with or without 200 mg caffeine anhydrous, two groups of three trained panelists
Protocol: Various bitterness assessments tests were conducted using triangle test method in order to compare formulations made with 1,3,7-trimethyluric acid or salt versus formulations made using theacrine (1,3,7,9-tetramethyluric acid);
The flavor profile on all formulations was kept in the same amounts in order to have no influence from it. The type of color and the color amount was the same in both formulas so that when dissolved into the water will match. A control sample was also prepared as “placebo” and given to both groups of panelist in a random order.
Two groups of three trained panelists were chosen for the triangle test in order to identify the odd samples.
To the first group of panelist, three drink samples were given in random order to taste: two of the same sample and one that was different:
First sample formula contains the following: […]
The second formula contains the following: […]
All samples formulas were dissolved separately into 10 Oz of cold water and shook to dissolve. The cups were filled in with each formula drink and were given to the first group of panelists in random order. Panelists were then asked to evaluate the overall attributes and identify the odd sample
The same kind of experiment was repeated using the second group of panelists comparing now the 1,3,7-trimethyluric sodium salt versus theacrine (1,3,7,9-tetramethyluric acid) with the addition of caffeine anhydrous in each formulation on equal amounts.
First formula contains the following: […]
Second formula contains the following: […]
Caffeine was added in both formulations in equal amounts and the flavor profiles were kept the same as in the first set of experiments. The first sample and the second sample formulas were dissolved separately into 10 Oz of cold water and shook to dissolve. 3 cups, 2 of which were filled in with first formula drink and a third cup filled with the second sample formula drink, were given to the first group of panelists in random order. Panelists were then asked to evaluate the overall attributes and identify the odd sample.

| Compound | bitterness and aftertaste of drink formulation | difference in flavor and taste versus control (placebo) sample (200 mg in flavored drink formula in 10 Oz cold water, alone or combined with caffeine) |
| --- | --- | --- |
| Cn1c(=O)c2c(n(C)c1=O)n(C)c(=O)n2C [theacrine, 1,3,7,9-tetramethyluric acid, reference compound] | significant and intolerable | – |
| Cn1c(=O)c2c([nH]c(=O)n2C)n(C)c1=O [1,3,7-trimethyluric acid] | almost no bitterness or aftertastes | No significant difference |
